# Data as given in PubChem BioAssay AID1259254 (NCATS, 2017)
# Aim: 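Gene knock-downs that lead to re-replication, shown by excess G2 DNA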 (primary screen)
# Cell system: human HCT116 colorectal cancer cells
# Reagents: single siRNA against human genes
# Duration: 3 days
# Measurement: 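Nuclei stained with Hoechst and imaged; cell-cycle phase assigned by DNA content; G2 share scaled per plate, non-targeting siRNA 0%, GMNN siRNA 100%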
# Direction: G2 robust z-score and G2 cells, % of GMNN control: higher = more G2 cells, more excess DNA replication
# Call rule: 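An siRNA counts as active if its G2 robust z-score lies at least 5 MADs above the screen median; here such calls match roughly 38% of GMNN control or more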
# The whole screen tested about 59,000 reagents; this is a random part of them. Over the whole deposit, about 1,550 (2.6%) are marked active. 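G2 share is only a proxy for re-replication; each gene was hit by three separate siRNAs, and active genes were retested.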 Unmarked entries are inactive. The numbers tell different reagents against one gene apart. Further read-outs or replicates are left out here. Not given: the amount of reagent.
target,siRNA no.,G2 robust z-score,"G2 cells, % of GMNN control"
TOP2A (DNA topoisomerase II alpha),1,9 (active),66.3
TOP2A (DNA topoisomerase II alpha),2,15.6 (active),113
TOP2A (DNA topoisomerase II alpha),3,11 (active),80.5
MAGEH1 (MAGE family member H1),1,-0.822,-2.82
MAGEH1 (MAGE family member H1),2,0.119,3.8
MAGEH1 (MAGE family member H1),3,0.0636,3.41
RPS16P1 (ribosomal protein S16 pseudogene 1),1,3.5,27.6
RPS16P1 (ribosomal protein S16 pseudogene 1),2,1.69,14.9
RPS16P1 (ribosomal protein S16 pseudogene 1),3,1.55,13.9
FAN1 (FANCD2 and FANCI associated nuclease 1),1,0.452,6.15
FAN1 (FANCD2 and FANCI associated nuclease 1),2,-0.779,-2.51
FAN1 (FANCD2 and FANCI associated nuclease 1),3,0.413,5.88
FXYD7 (FXYD domain containing ion transport regulator 7),1,1.84,15.9
FXYD7 (FXYD domain containing ion transport regulator 7),2,-0.413,0.0589
FXYD7 (FXYD domain containing ion transport regulator 7),3,-0.732,-2.18
ZNF343 (zinc finger protein 343),1,1.76,15.3
ZNF343 (zinc finger protein 343),2,-0.169,1.78
ZNF343 (zinc finger protein 343),3,-0.573,-1.06
MIS12 (MIS12 kinetochore complex component),1,-0.984,-3.96
MIS12 (MIS12 kinetochore complex component),2,0.105,3.71
MIS12 (MIS12 kinetochore complex component),3,-0.452,-0.213
EEF1A2 (eukaryotic translation elongation factor 1 alpha 2),1,1.86,16.1
EEF1A2 (eukaryotic translation elongation factor 1 alpha 2),2,1.42,13
EEF1A2 (eukaryotic translation elongation factor 1 alpha 2),3,0.181,4.24
FAM47A (family with sequence similarity 47 member A),1,-0.772,-2.46
FAM47A (family with sequence similarity 47 member A),2,1.01,10.1
FAM47A (family with sequence similarity 47 member A),3,1.5,13.5
"TNNC2 (troponin C2, fast skeletal type)",1,0.187,4.28
"TNNC2 (troponin C2, fast skeletal type)",2,0.772,8.4
"TNNC2 (troponin C2, fast skeletal type)",3,-0.237,1.3
DSCR10 (Down syndrome critical region 10),1,-0.191,1.62
DSCR10 (Down syndrome critical region 10),2,-0.344,0.549
DSCR10 (Down syndrome critical region 10),3,-0.694,-1.91
HGSNAT (heparan-alpha-glucosaminide N-acetyltransferase),1,-1.06,-4.52
HGSNAT (heparan-alpha-glucosaminide N-acetyltransferase),2,0.159,4.09
HGSNAT (heparan-alpha-glucosaminide N-acetyltransferase),3,0.135,3.92
SNAPC4 (small nuclear RNA activating complex polypeptide 4),1,-1.3,-6.2
SNAPC4 (small nuclear RNA activating complex polypeptide 4),2,-1.01,-4.12
SNAPC4 (small nuclear RNA activating complex polypeptide 4),3,0.729,8.09
CYP11B1 (cytochrome P450 family 11 subfamily B member 1),1,-0.105,2.23
CYP11B1 (cytochrome P450 family 11 subfamily B member 1),2,1.06,10.5
CYP11B1 (cytochrome P450 family 11 subfamily B member 1),3,0.499,6.48
GGTLC2 (gamma-glutamyltransferase light chain 2),1,0.472,6.29
GGTLC2 (gamma-glutamyltransferase light chain 2),2,-0.0957,2.29
GGTLC2 (gamma-glutamyltransferase light chain 2),3,-0.648,-1.59
PANX1 (pannexin 1),1,2.17,18.2
PANX1 (pannexin 1),2,-0.649,-1.6
PANX1 (pannexin 1),3,0.969,9.79
ALX4 (ALX homeobox 4),1,-1.11,-4.84
ALX4 (ALX homeobox 4),2,1.75,15.3
ALX4 (ALX homeobox 4),3,-0.421,0.00429
TOGARAM1 (TOG array regulator of axonemal microtubules 1),1,-0.206,1.52
TOGARAM1 (TOG array regulator of axonemal microtubules 1),2,2.39,19.8
TOGARAM1 (TOG array regulator of axonemal microtubules 1),3,-0.397,0.174
USP20 (ubiquitin specific peptidase 20),1,-0.917,-3.49
USP20 (ubiquitin specific peptidase 20),2,2.02,17.2
USP20 (ubiquitin specific peptidase 20),3,-0.291,0.919
CYTH1 (cytohesin 1),1,-1.5,-7.59
CYTH1 (cytohesin 1),2,2.5,20.6
CYTH1 (cytohesin 1),3,-0.259,1.15
SAMD4B (sterile alpha motif domain containing 4B),1,-1.51,-7.64
SAMD4B (sterile alpha motif domain containing 4B),2,0.481,6.35
SAMD4B (sterile alpha motif domain containing 4B),3,-0.0195,2.83
SHISA5 (shisa family member 5),1,-0.76,-2.38
SHISA5 (shisa family member 5),2,-0.504,-0.576
SHISA5 (shisa family member 5),3,-0.079,2.41
"FGR (FGR proto-oncogene, Src family tyrosine kinase)",1,-1.4,-6.88
"FGR (FGR proto-oncogene, Src family tyrosine kinase)",2,3.36,26.6
"FGR (FGR proto-oncogene, Src family tyrosine kinase)",3,-0.396,0.178

Reagents listed above with an active call:
target,siRNA no.,G2 robust z-score,"G2 cells, % of GMNN control"
TOP2A (DNA topoisomerase II alpha),1,9 (active),66.3
TOP2A (DNA topoisomerase II alpha),2,15.6 (active),113
TOP2A (DNA topoisomerase II alpha),3,11 (active),80.5
